Some of these results come from one statement about several compounds together.
How the values were obtained:
Assay type in all cases: in vivo
Boophilus microplus = Boophilus microplus test (BOOPMI injection); settings: 20 μg/animal, injection into the abdomen
[1] = system: adult fleas (Ctenocephalides felis); assay: Ctenocephalides felis; oral (CTECFE); settings: 100 ppm in citrated cattle blood, oral uptake
[2] = system: caterpillars of the armyworm (Spodoptera frugiperda); assay: Spodoptera frugiperda test (SPODFR spray treatment); settings: application rate 500 g/ha, maize leaf discs sprayed, after 7 days
Experimental: Spodoptera frugiperda Test (SPODFR Spray Treatment)
Solvent: 78.0 parts by weight of acetone • • 1.5 parts by weight of dimethylformamide Emulsifier: 0.5 part by weight of alkylaryl polyglycol ether
To produce a suitable preparation of active compound, 1 part by weight of active compound is mixed with the stated amounts of solvent and emulsifier, and the concentrate is diluted with emulsifier-containing water to the desired concentration.
Discs of maize leaves (Zea mays) are sprayed with an active compound preparation of the desired concentration and, after drying, populated with caterpillars of the armyworm (Spodoptera frugiperda).
After 7 days, the effect in % is determined 100% means that all caterpillars have been killed; 0% means that none of the caterpillars have been killed.

Lucilia cuprina larvae = assay: Lucilia cuprina test (LUCICU); settings: 100 ppm, treated horse meat
adult Musca domestica = assay: Musca domestica test (MUSCDO); settings: 100 ppm, treated sponge
[3] = system: larvae of the mustard beetle (Phaedon cochleariae); assay: Phaedon cochleariae test (PHAECO spray treatment); settings: application rate 500 g/ha, Chinese cabbage leaf discs sprayed, after 7 days
[4] = system: greenhouse red spider mite (Tetranychus urticae); assay: Tetranychus test, OP-resistant (TETRUR spray treatment); settings: application rate 500 g/ha, bean leaf discs sprayed

N#Cc1cc(-n2nc(C(F)(F)F)c(-c3cc(Cl)cc(C(F)(F)F)c3)c2N)ccc1-n1cncn1 [I-A-Q1-001, 5-[5-Amino-4-(3-chloro-5-trifluoromethylphenyl)-3-trifluoromethylpyrazol-1-yl]-2-[1,2,4]triazol-1-ylbenzonitrile]
> 80%: effect in % (no fertile eggs laid) (Boophilus microplus) | kill in % (fleas) [1] | effect in % (caterpillars killed) [2] | kill in % (larvae) (Lucilia cuprina larvae)

O=C(NCC(F)(F)F)c1ccc(-n2cc(-c3cc(Cl)cc(Cl)c3)c(C(F)(F)F)n2)cc1C(F)(F)F [I-A-Q2-002, 4-[4-(3,5-Dichlorophenyl)-3-trifluoromethylpyrazol-1-yl]-N-(2,2,2-trifluoroethyl)-2-trifluoromethylbenzamide]
> 80%: kill in % (flies) (adult Musca domestica) | effect in % (no fertile eggs laid) (Boophilus microplus) | kill in % (larvae) (Lucilia cuprina larvae)

CC(NC(=O)c1ccc(-n2cc(-c3cc(Cl)cc(Cl)c3)c(C(F)(F)F)n2)cc1C(F)(F)F)C(F)(F)F (stereo not drawn) [I-A-Q2-005]
> 80%: kill in % (flies) (adult Musca domestica) | effect in % (no fertile eggs laid) (Boophilus microplus) | kill in % (larvae) (Lucilia cuprina larvae)

Cc1cc(-n2nc(C(F)(F)F)c(-c3cc(Cl)cc(Cl)c3)c2N)ccc1C(=O)NC(C)C(F)(F)F (stereo not drawn) [I-A-Q2-011]
> 80%: kill in % (flies) (adult Musca domestica) | effect in % (beetle larvae killed) [3] | effect in % (no fertile eggs laid) (Boophilus microplus) | kill in % (fleas) [1] | effect in % (caterpillars killed) [2] | kill in % (larvae) (Lucilia cuprina larvae)

Cc1cc(-n2nc(C(F)(F)F)c(-c3cc(Cl)cc(Cl)c3)c2N)ccc1C(=O)NCc1ccccn1 [I-A-Q2-012, 4-[5-Amino-4-(3,5-dichlorophenyl)-3-trifluoromethylpyrazol-1-yl]-2-methyl-N-pyridin-2-ylmethylbenzamide]
> 80%: effect in % (spider mites killed) [4] | effect in % (no fertile eggs laid) (Boophilus microplus) | kill in % (fleas) [1] | effect in % (caterpillars killed) [2] | kill in % (larvae) (Lucilia cuprina larvae)

Cc1cc(-n2nc(C(F)(F)F)c(-c3cc(Cl)cc(Cl)c3)c2N)ccc1C(=O)NCC(F)(F)F [I-A-Q2-014]
> 80%: kill in % (flies) (adult Musca domestica) | effect in % (beetle larvae killed) [3] | effect in % (no fertile eggs laid) (Boophilus microplus) | kill in % (fleas) [1] | effect in % (caterpillars killed) [2] | kill in % (larvae) (Lucilia cuprina larvae)

Cc1cc(-n2nc(C(F)(F)F)c(-c3cc(Cl)cc(Cl)c3)c2N)ccc1C(=O)NC(C)c1ccccn1 (stereo not drawn) [I-A-Q2-015]
> 80%: effect in % (spider mites killed) [4] | effect in % (beetle larvae killed) [3] | effect in % (no fertile eggs laid) (Boophilus microplus) | kill in % (fleas) [1] | effect in % (caterpillars killed) [2] | kill in % (larvae) (Lucilia cuprina larvae)

Cc1cc(-n2nc(C(F)(F)F)c(-c3cc(Cl)cc(Cl)c3)c2N)ccc1C(=O)NC(C)c1ccccc1 (stereo not drawn) [I-A-Q2-016]
> 80%: effect in % (beetle larvae killed) [3] | effect in % (no fertile eggs laid) (Boophilus microplus) | kill in % (fleas) [1]

Cc1cc(-n2nc(C(F)(F)F)c(-c3cc(Cl)cc(Cl)c3)c2N)ccc1C(=O)NCC(F)F [I-A-Q2-017]
> 80%: kill in % (flies) (adult Musca domestica) | effect in % (beetle larvae killed) [3] | effect in % (no fertile eggs laid) (Boophilus microplus) | kill in % (fleas) [1] | effect in % (caterpillars killed) [2] | kill in % (larvae) (Lucilia cuprina larvae)

Cc1cc(-n2nc(C(F)(F)F)c(-c3cc(Cl)cc(Cl)c3)c2N)ccc1C(=O)NCc1ncccn1 [I-A-Q2-018]
> 80%: kill in % (flies) (adult Musca domestica) | effect in % (beetle larvae killed) [3] | effect in % (no fertile eggs laid) (Boophilus microplus) | kill in % (fleas) [1] | effect in % (caterpillars killed) [2] | kill in % (larvae) (Lucilia cuprina larvae)

Cc1cc(-n2nc(C(F)(F)F)c(-c3cc(Cl)cc(Cl)c3)c2Br)ccc1C(=O)NCc1ccccn1 [I-A-Q2-023]
> 80%: effect in % (beetle larvae killed) [3] | effect in % (no fertile eggs laid) (Boophilus microplus) | kill in % (fleas) [1] | effect in % (caterpillars killed) [2] | kill in % (larvae) (Lucilia cuprina larvae)

CC(NC(=O)c1ccc(-n2nc(C(F)(F)F)c(-c3cc(Cl)cc(Cl)c3)c2N)cc1)c1ccccn1 (stereo not drawn) [I-A-Q2-147]
> 80%: effect in % (beetle larvae killed) [3] | effect in % (no fertile eggs laid) (Boophilus microplus) | effect in % (caterpillars killed) [2] | kill in % (larvae) (Lucilia cuprina larvae)
